Measurements taken from patent US20170189448A1.
Results are given in words; binding and its absence hold for the method and conditions named. Some entries that bind do so weakly or less than the wild type.

Amino acid sequences for entries named in this document (tags omitted). A change or cut given only in a name is not applied to a line headed by its entry. Residues count along the entry.
UniProt P01137, residues 30-390: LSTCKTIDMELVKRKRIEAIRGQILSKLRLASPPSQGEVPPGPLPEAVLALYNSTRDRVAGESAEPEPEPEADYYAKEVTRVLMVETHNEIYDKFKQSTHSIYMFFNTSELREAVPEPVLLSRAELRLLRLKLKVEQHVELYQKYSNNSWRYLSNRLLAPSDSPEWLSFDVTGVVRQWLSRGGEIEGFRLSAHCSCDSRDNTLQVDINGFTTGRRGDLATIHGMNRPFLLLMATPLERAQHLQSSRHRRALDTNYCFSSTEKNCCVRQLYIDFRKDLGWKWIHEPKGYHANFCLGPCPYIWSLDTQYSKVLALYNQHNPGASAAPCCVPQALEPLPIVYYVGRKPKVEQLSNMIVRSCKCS
UniProt Q14392: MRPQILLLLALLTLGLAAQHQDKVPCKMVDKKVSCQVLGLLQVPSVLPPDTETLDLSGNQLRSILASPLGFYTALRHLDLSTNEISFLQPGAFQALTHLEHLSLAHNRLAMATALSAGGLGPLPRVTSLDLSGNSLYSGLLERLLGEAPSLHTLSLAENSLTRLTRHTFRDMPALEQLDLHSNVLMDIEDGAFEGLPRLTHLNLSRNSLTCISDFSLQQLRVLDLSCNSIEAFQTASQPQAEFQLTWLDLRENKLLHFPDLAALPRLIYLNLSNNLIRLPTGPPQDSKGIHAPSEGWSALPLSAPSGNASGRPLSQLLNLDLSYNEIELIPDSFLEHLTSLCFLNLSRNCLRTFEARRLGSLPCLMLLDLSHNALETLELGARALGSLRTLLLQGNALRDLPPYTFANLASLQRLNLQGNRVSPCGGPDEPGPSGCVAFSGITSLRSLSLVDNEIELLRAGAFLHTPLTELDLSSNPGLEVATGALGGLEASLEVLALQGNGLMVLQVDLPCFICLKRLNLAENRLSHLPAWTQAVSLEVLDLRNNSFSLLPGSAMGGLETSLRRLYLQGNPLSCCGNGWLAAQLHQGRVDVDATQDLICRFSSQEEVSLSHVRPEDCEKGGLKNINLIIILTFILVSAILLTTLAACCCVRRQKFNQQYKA

Target: human LAP/TGF-β1 (membrane-bound latent TGF-β1) on hASCs (human) (UniProt P01137)
Assay: summary of flow cytometry co-staining and GARP shRNA silencing experiments on hASCs

- binding: binds
Substance: human GARP (glycoprotein-A repetitions predominant protein, LRRC32) on human adipose-derived stem cells (hASCs) (from UniProt Q14392 20-662) (receptor)
